Drawing on the supplement of paper PMC12819154, “High-throughput peptide-centric local stability assay extends protein–ligand identification to membrane proteins, tissues and bacteria” (Nature Structural & Molecular Biology, 2025), this text covers log2 fold change for 36 targets.

Sequences of proteins named here, by UniProt entry; tags and fusion partners are left off. A change or cut given only in a name is not applied to a line headed by its entry.
UniProt O75427: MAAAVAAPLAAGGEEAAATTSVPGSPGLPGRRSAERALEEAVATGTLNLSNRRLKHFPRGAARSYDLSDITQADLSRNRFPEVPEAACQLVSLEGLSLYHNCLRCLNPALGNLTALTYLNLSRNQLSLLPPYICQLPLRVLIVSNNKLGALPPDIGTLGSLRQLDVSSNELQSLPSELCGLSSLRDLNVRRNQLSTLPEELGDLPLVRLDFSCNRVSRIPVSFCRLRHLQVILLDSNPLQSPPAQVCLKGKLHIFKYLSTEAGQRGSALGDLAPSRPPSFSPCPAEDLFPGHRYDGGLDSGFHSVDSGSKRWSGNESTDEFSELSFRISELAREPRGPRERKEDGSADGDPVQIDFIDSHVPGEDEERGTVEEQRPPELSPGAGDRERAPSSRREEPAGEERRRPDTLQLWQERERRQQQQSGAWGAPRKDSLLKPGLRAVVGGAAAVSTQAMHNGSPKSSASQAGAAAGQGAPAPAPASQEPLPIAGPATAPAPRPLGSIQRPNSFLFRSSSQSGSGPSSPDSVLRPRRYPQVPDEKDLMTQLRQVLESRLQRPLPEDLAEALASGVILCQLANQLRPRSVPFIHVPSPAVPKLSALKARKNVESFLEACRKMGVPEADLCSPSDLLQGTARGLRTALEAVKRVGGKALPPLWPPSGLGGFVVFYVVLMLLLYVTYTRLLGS
UniProt O95671: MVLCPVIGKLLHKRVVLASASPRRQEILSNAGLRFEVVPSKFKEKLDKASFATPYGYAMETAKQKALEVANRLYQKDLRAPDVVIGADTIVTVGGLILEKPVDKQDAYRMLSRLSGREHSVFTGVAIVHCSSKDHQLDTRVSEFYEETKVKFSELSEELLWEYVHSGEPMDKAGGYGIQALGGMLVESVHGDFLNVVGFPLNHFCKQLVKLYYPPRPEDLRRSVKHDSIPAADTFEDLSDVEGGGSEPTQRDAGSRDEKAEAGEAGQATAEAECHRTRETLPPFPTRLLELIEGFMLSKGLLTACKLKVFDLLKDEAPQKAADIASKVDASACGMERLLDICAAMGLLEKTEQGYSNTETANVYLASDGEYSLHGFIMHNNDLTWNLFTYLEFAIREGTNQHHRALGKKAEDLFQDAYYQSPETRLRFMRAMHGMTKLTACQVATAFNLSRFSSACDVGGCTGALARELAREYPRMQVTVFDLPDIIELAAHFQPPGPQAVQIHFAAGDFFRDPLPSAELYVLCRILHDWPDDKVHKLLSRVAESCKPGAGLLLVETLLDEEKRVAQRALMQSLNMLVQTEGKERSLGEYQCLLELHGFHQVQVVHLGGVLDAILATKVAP
UniProt O75382: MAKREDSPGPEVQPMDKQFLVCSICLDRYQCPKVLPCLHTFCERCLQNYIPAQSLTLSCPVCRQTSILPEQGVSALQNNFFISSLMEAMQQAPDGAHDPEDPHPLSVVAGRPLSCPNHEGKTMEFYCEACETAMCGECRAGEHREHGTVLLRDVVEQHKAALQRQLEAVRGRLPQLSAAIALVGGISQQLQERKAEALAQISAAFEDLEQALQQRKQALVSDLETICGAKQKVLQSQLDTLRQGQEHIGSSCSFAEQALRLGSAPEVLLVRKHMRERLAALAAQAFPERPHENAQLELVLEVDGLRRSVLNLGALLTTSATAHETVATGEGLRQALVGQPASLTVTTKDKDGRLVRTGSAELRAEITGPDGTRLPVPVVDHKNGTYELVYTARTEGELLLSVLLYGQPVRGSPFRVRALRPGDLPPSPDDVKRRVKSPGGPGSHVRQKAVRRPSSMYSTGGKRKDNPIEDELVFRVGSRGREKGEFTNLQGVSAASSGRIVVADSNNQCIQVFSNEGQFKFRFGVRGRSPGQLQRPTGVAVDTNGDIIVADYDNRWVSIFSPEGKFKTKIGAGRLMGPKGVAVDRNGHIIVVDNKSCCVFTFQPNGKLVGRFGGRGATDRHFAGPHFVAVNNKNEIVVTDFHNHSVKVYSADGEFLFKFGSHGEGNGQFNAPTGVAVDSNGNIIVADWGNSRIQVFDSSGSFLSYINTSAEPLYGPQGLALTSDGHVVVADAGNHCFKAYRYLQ
UniProt O94761: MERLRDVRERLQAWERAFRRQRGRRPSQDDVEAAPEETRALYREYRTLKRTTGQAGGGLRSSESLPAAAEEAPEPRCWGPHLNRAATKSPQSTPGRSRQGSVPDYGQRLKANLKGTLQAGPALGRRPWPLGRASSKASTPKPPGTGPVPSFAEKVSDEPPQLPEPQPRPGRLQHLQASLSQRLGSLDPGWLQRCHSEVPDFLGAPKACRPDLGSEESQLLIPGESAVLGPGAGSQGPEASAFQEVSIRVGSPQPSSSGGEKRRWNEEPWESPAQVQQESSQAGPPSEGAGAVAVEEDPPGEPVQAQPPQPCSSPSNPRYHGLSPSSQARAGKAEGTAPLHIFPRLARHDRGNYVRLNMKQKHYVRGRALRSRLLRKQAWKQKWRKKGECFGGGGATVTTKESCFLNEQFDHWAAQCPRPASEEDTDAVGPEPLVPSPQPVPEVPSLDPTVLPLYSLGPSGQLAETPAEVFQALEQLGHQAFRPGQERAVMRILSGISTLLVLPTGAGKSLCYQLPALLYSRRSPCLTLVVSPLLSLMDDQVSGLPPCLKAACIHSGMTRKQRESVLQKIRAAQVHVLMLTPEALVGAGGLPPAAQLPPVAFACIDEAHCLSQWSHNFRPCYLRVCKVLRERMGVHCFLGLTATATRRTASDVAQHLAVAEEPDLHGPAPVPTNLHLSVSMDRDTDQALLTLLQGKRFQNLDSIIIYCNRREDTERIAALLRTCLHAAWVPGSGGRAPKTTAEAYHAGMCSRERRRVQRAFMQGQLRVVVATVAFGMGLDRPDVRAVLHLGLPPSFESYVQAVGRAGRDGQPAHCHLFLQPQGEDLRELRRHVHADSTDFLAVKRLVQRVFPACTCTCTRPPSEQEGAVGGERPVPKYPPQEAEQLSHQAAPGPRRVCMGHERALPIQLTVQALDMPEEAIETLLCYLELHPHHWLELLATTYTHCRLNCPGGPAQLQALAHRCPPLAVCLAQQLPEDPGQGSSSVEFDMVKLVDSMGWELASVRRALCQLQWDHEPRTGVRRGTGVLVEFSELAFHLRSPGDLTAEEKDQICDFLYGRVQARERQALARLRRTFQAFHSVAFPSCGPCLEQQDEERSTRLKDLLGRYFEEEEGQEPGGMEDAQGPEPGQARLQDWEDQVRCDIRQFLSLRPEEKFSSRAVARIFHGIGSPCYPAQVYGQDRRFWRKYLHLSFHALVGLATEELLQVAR
UniProt O75718: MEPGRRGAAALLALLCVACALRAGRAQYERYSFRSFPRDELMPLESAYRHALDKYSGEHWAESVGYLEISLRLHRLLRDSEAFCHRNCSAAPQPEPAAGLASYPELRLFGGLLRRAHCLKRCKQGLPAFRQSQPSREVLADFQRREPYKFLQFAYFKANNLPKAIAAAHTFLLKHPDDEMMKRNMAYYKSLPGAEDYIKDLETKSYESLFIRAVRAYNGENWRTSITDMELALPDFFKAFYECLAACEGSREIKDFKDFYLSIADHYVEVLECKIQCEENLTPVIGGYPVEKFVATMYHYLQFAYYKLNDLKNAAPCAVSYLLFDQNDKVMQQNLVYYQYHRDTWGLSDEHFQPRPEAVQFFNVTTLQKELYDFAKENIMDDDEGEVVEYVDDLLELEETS
UniProt O75554: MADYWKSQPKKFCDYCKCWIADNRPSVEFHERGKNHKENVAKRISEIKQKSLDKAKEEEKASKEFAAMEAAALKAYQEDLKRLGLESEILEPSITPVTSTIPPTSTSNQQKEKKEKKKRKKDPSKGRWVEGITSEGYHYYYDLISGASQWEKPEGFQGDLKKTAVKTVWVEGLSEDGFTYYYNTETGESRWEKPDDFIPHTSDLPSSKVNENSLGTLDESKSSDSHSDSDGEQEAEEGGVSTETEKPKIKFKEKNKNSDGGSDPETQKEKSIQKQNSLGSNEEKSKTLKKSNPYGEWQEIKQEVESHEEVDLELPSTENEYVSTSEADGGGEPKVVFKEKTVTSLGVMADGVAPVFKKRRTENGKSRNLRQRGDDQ
UniProt O95140: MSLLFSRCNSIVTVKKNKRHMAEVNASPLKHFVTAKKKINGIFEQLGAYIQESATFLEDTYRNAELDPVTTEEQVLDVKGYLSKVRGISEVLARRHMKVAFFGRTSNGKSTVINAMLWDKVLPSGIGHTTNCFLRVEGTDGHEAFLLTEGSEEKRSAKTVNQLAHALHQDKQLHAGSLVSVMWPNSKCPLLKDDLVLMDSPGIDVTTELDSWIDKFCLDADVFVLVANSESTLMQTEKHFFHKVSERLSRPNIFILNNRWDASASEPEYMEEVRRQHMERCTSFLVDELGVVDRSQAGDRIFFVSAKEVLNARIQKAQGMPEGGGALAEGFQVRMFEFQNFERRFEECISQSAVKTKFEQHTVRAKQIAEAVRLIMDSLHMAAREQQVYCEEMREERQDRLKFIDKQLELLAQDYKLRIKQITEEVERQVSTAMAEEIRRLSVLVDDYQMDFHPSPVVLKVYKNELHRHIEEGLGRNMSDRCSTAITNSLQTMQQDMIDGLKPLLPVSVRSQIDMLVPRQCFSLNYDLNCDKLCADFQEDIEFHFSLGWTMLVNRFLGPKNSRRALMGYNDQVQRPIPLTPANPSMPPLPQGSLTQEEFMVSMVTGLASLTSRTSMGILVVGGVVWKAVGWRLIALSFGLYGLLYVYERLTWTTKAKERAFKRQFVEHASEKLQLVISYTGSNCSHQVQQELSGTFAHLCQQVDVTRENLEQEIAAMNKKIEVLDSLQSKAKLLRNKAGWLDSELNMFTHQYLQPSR
UniProt O94979: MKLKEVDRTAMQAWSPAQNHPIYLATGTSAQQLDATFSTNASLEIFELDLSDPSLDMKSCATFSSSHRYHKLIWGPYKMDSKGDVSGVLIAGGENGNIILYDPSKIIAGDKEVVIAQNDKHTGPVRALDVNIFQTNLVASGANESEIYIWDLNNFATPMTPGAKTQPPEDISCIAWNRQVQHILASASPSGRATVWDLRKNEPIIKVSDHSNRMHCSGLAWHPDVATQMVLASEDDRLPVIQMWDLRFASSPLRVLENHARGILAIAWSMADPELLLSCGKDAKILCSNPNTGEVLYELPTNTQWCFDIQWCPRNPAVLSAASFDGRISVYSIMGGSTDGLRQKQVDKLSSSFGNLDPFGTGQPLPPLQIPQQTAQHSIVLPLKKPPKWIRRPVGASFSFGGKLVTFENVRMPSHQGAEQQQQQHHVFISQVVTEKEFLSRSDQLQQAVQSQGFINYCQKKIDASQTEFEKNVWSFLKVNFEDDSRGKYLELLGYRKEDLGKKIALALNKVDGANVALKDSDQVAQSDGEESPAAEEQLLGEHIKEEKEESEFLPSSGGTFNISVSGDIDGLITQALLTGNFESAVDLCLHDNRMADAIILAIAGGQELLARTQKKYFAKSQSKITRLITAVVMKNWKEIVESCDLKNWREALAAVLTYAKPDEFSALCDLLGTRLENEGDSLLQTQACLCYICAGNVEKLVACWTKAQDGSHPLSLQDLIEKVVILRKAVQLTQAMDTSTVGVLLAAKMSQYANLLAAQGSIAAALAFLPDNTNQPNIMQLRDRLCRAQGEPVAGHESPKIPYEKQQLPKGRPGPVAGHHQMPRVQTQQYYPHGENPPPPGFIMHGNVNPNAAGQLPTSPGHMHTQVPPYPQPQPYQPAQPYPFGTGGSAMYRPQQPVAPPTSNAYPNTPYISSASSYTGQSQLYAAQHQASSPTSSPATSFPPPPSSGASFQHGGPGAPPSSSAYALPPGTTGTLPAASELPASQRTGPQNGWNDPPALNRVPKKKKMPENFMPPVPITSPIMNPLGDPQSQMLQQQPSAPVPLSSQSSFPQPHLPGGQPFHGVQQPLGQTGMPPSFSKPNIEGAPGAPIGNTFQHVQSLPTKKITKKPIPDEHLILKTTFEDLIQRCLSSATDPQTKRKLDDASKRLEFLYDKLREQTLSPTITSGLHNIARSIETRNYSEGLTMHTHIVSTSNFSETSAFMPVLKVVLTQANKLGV
UniProt O75467: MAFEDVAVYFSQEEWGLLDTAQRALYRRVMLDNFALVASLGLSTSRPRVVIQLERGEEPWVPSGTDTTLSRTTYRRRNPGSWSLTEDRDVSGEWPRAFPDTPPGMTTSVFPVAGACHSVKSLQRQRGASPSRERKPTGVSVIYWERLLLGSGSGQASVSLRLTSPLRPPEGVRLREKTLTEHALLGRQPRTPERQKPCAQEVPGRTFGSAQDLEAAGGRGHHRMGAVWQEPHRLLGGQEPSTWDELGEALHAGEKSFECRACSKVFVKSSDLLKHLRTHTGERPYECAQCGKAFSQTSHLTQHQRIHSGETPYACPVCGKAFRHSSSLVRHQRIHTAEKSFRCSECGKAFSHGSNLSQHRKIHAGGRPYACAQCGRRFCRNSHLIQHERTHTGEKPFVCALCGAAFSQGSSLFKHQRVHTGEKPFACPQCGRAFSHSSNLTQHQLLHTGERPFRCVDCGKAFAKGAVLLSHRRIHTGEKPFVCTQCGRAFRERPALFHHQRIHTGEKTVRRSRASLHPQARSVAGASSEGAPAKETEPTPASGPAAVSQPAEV

The other results are listed elsewhere or left out. Most values lie at the level of the controls, where differences are scatter.

Compound in this assay: CN[C@@H]1C[C@H]2O[C@@](C)([C@@H]1OC)n1c3ccccc3c3c4c(c5c6ccccc6n2c5c31)C(=O)NC4 [staurosporine]
Description: log2 fold change of tryptic peptide abundance, ligand vs vehicle (limited proteolysis) (log2 ratio); higher = more trypsin-susceptible (destabilized). To be noted: ligand concentration: 20 uM; sample: K562 cleared lysate; digestion: 4 min, 22 C (HT-PELSA RT4min, Orbitrap Astral).
As to “MED6 (peptide sequence: RKEEPSSIFQR, peptide start residue: 164) (UniProt O75586)”, the log2 fold change is -0.291.
With “EPN2 (peptide sequence: EVAEQEER, peptide start residue: 289) (UniProt O95208)” the figure was -0.28; with “WDHD1 (peptide sequence: AYSCALKSGK, peptide start residue: 57) (UniProt O75717)”, 0.745; with “FARS2 (peptide sequence: TIGGDLVEKVDLIDK, peptide start residue: 387) (UniProt O95363)”, 0.129.
Take “NDUFB10 (peptide sequence: AFDLIVDRPVTLVR, peptide start residue: 30) (UniProt O96000)”: the log2 fold change is -0.183.
Consider “LRCH4 (peptide sequence: IPVSFCR, peptide start residue: 219) (UniProt O75427)”, for which the log2 fold change was found to be 0.331.
Consider “PAPSS2 (peptide sequence: RGQVVGTR, peptide start residue: 40) (UniProt O95340)”, for which the log2 fold change is -0.173.
With “TRMU (peptide sequence: VHWIAEEPPAALVR, peptide start residue: 310) (UniProt O75648)” the figure was -0.612; with “ASMTL (peptide sequence: VSEFYEETK, peptide start residue: 141) (UniProt O95671)”, -0.661.
Then “UniProt O75528 (peptide sequence: WAQEDLLEEQKDGAR, peptide start residue: 200)”, with -0.186.
With “TRIM3 (peptide sequence: SPGGPGSHVR, peptide start residue: 437) (UniProt O75382)” the figure was 0.356.
On to “RECQL4 (peptide sequence: AACIHSGMTR, peptide start residue: 550) (UniProt O94761)”, for which the log2 fold change is 0.611.
With “PPP1R15A (peptide sequence: APLSPSLLIR, peptide start residue: 140) (UniProt O75807)” the figure was 0.608; with “CRTAP (peptide sequence: DELMPLESAYR, peptide start residue: 39) (UniProt O75718)”, 0.137; with “HSPA4L (peptide sequence: QVYVDKLQELK, peptide start residue: 672) (UniProt O95757)”, 0.346.
With “NEBL (peptide sequence: NTQVVSDAAYK, peptide start residue: 812) (UniProt O76041)” the figure was -0.167.
Consider “PRKRA (peptide sequence: HRAAEAAINILK, peptide start residue: 89) (UniProt O75569)”, for which the log2 fold change was 0.705.
Turning to “WBP4 (peptide sequence: KFCDYCK, peptide start residue: 11) (UniProt O75554)”, the log2 fold change is 0.346.
Regarding “DCTN3 (peptide sequence: YLDPEYIDR, peptide start residue: 67) (UniProt O75935)”, the log2 fold change was -0.0597.
Then “IDH1 (peptide sequence: DATNDQVTKDAAEAIKK, peptide start residue: 50) (UniProt O75874)”, with 0.206; and “FAM13A (peptide sequence: ANTIPIIGSPSSK, peptide start residue: 848) (UniProt O94988)”, with 0.519.
Take “NUP155 (peptide sequence: MKKPLHLLDCIHVLLIR, peptide start residue: 1317) (UniProt O75694)”: the log2 fold change amounted to 0.757.
Then “TXNDC12 (peptide sequence: VHPEIINENGNPSYK, peptide start residue: 124) (UniProt O95881)”, with 0.349; and “PSIP1 (peptide sequence: GFNEGLWEIDNNPK, peptide start residue: 76) (UniProt O75475)”, with -0.349.
Then “KATNA1 (peptide sequence: SLLMISENVK, peptide start residue: 2) (UniProt O75449)”, with 0.204.
With “AIFM1 (peptide sequence: KVETDHIVAAVGLEPNVELAK, peptide start residue: 388) (UniProt O95831)” the figure was 0.316; with “TOP3B (peptide sequence: MSALAAYFV, peptide start residue: 854) (UniProt O95985)”, 0.555; with “UniProt O94875 (peptide sequence: CDDGWFVGTSR, peptide start residue: 1264)”, 0.0782.
In the case of “SEC24B (peptide sequence: LTDEGAVHVNDR, peptide start residue: 1127) (UniProt O95487)”, the log2 fold change came out at 0.321.
With “MFN2 (peptide sequence: WDASASEPEYMEEVRR, peptide start residue: 260) (UniProt O95140)”, the log2 fold change was -0.501.
Then “UniProt O95104 (peptide sequence: GKEKPEVTDR, peptide start residue: 1077)”, with 0.217; and “SEC31A (peptide sequence: YLELLGYRK, peptide start residue: 489) (UniProt O94979)”, with 0.776; and “UniProt O95382 (peptide sequence: QILQGLGYLHDNHIVHR, peptide start residue: 754)”, with -0.74.
Regarding “RNASEH2A (peptide sequence: LQQSFPGIEVTVK, peptide start residue: 153) (UniProt O75792)”, the log2 fold change was 0.615.
With “UniProt O95758 (peptide sequence: VKIMFNKK, peptide start residue: 388)” the figure was 0.577; with “ZNF324 (peptide sequence: RVMLDNFALVASLGLSTSRPR, peptide start residue: 28) (UniProt O75467)”, 0.5.
